{"sequences": {"note": "Sequences of proteins named here, by UniProt entry; tags and fusion partners are left off.", "UniProt P09471, whole entry, looked up": "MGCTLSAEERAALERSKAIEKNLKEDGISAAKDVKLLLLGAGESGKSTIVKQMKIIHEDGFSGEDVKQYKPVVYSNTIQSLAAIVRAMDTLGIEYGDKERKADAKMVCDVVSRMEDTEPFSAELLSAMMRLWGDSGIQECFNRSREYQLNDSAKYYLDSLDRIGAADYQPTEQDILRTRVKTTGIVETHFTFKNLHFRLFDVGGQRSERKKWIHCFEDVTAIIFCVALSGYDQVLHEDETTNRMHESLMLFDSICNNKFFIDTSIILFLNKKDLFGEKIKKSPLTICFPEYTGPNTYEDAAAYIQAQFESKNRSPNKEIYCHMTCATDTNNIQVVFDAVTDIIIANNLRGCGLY"}, "source": "PubChem BioAssay AID1439", "about": "(NMMLSC, 2008)", "note": "Out of some 220,000 compounds screened, about 770 (0.35%) were called active. This list was built around the results that the source calls inconclusive (neither active nor inactive); the mix of calls is not that of the screen. Rule as the data show it: active = binding response below about 49% or above about 150%; inconclusive = no clear call, values can overlap the other calls; inactive = in between.", "data": [{"molecular_target": "Guanine nucleotide-binding protein G(o) subunit alpha (Homo sapiens) (UniProt P09471)", "experiment": "RGS7-Galphao binding modulators, primary screen, biochemical, multiplexed bead flow cytometry (AID 1439);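 also: fluorescent Galphao held in activated GDP-AlF4 state binding bead-coupled RGS7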", "details": "at 10 µM, actives lie on both sides", "values": [{"smiles": "CC1CCCN(C(=O)COc2ccc(Nc3ccccc3)cc2)C1", "note": "(stereo not given)", "binding response (% of control)": "inconclusive: 98.3%"}, {"smiles": "CCOc1ccc(OCc2ccc(C(=O)N3CCCC3)o2)cc1", "binding response (% of control)": "inactive: 101%"}, {"smiles": "O=C(Nc1ccccn1)NC1CCS(=O)(=O)C1", "note": "(stereo not given)", "binding response (% of control)": "inactive: 81.9%"}, {"smiles": "C/C(=N\\O)C(C)(C)Nc1ccc(Br)cc1", "binding response (% of control)": "inconclusive: 106%"}, {"smiles": "Cc1cc(C)c2cc(C#N)c(SCC(=O)Nc3ccc4c(c3)OCO4)nc2c1", "binding response (% of control)": "inconclusive: 75%"}, {"smiles": "O=C(NNC(=O)c1nn(-c2ccc(F)cc2)ccc1=O)c1ccc(C(F)(F)F)cc1", "binding response (% of control)": "inconclusive: 54.9%"}, {"smiles": "Cc1cc(NNC(=O)c2cccc(C(F)(F)F)c2)nc2c1c(C)nn2C", "binding response (% of control)": "inconclusive: 91.2%"}, {"smiles": "NC(=O)CC(NC(=O)Cc1ccc(Cl)cc1)c1ccc(NCCc2ccccc2F)c([N+](=O)[O-])c1", "note": "(stereo not given)", "binding response (% of control)": "inconclusive: 111%"}, {"smiles": "CS(=O)(=O)N(CC(=O)NCCSc1ccccn1)c1cccc2ccccc12", "binding response (% of control)": "inactive: 108%"}, {"smiles": "CC1(c2ccccc2)NC(=O)N(NC(=O)CSc2n[nH]c(N)n2)C1=O", "note": "(stereo not given)", "binding response (% of control)": "inconclusive: 114%"}, {"smiles": "CCCc1cnc(N2CCN(C(=S)NC)CC2)nc1", "binding response (% of control)": "inconclusive: 721%"}, {"smiles": "COc1ccc(N2C(=O)CC(N3CCCCC3)C2=O)cc1", "note": "(stereo not given)", "binding response (% of control)": "inconclusive: 76.2%"}, {"smiles": "Cc1onc(-c2c(F)cccc2Cl)c1C(O)c1ccc(F)cc1", "note": "(stereo not given)", "binding response (% of control)": "inconclusive: 85.5%"}, {"smiles": "CCNC(=O)CC1C(=O)N(CC)C(=S)N1NC(=O)c1ccccc1", "note": "(stereo not given)", "binding response (% of control)": "inconclusive: 121%"}, {"smiles": "Cc1ccc(NC(=O)COc2ncnc3cc([N+](=O)[O-])ccc23)cc1S(=O)(=O)N1CCOCC1", "binding response (% of control)": "inconclusive: 136%"}, {"smiles": "CN(C(=O)c1coc(=O)c2ccccc12)c1ccc(Br)cc1", "binding response (% of control)": "inconclusive: 108%"}, {"smiles": "O=[N+]([O-])c1ccc(NCc2ccc(Cl)cc2)nc1", "binding response (% of control)": "inconclusive: 117%"}, {"smiles": "Cc1ccc(O)c(-c2cc(C(=O)Nc3cccnc3)[nH]n2)c1", "binding response (% of control)": "inconclusive: 170%"}, {"smiles": "COc1ccc(OC)c(NC(=S)NCc2ccccc2OC)c1", "binding response (% of control)": "inconclusive: 97.3%"}, {"smiles": "Clc1cccc(Nc2nc(-c3cccnc3)cs2)c1", "binding response (% of control)": "inactive: 99.7%"}, {"smiles": "NNS(=O)(=O)c1ccc(Sc2ccccn2)c([N+](=O)[O-])c1", "binding response (% of control)": "inconclusive: 137%"}, {"smiles": "COCCn1c(SCc2nnc(-c3ccc(OC)c(OC)c3)o2)nnc1-c1ccncc1", "binding response (% of control)": "inconclusive: 94.5%"}, {"smiles": "O=C(COC(=O)c1ccccc1F)Nc1cccnc1Cl", "binding response (% of control)": "inconclusive: 89.3%"}, {"smiles": "COC(=O)c1cc(Nc2cc(C)c3c(O)cccc3n2)cc(C(=O)OC)c1", "binding response (% of control)": "inconclusive: 101%"}, {"smiles": "N#CC1=C(N)C2=C(N3CCCCC3)CCCC2C1(C#N)C#N", "note": "(stereo not given)", "binding response (% of control)": "inactive: 102%"}]}]}
